{"source": "PubChem BioAssay AID493246 (Drosophila RNAi Screening Center, 2011)", "aim": "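Genes fly cells need to grow and stay alive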 (primary screen)", "cells": "Drosophila Kc and S2R+ cells", "reagent": "long dsRNA against Drosophila genes", "measured": "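Raw, unnormalised count of remaining cells in each well; per-plate z-scores of cell number underlie the calls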", "direction": "Kc cell number and S2R+ cell number: higher = more cells remaining", "rule for the call": "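Counted as a hit if cell number falls by a z-score of at least 3 within its plate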", "note": "In all, the deposit lists about 21,000 reagents; this is a random part of those that have a named target and a result. In the full data, 429 (2%) were called active. 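Values are raw and not normalised between plates; calls rest on per-plate z-scores that were not deposited.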 The record does not give: the amount of reagent, the time to read-out."}
{"gene": "tapas", "DRSC id": "DRSC05950", "Kc cell number, rep 1": 1.28e6, "Kc cell number, rep 2": 1.35e6, "S2R+ cell number, rep 1": 1.18e6, "S2R+ cell number, rep 2": 1.21e6, "activity call": "inactive"}
{"gene": "alphaKap4 (alpha Karyopherin-4)", "DRSC id": "DRSC09823", "Kc cell number, rep 1": 1.70e6, "Kc cell number, rep 2": 1.57e6, "S2R+ cell number, rep 1": 1.13e6, "S2R+ cell number, rep 2": 1.29e6, "activity call": "inactive"}
{"gene": "Tsp42Eg (Tetraspanin 42Eg)", "DRSC id": "DRSC06112", "Kc cell number, rep 1": 1.40e6, "Kc cell number, rep 2": 1.47e6, "S2R+ cell number, rep 1": 1.18e6, "S2R+ cell number, rep 2": 1.22e6, "activity call": "inactive"}
{"gene": "lab (labial)", "DRSC id": "DRSC12627", "Kc cell number, rep 1": 1.37e6, "Kc cell number, rep 2": 1.42e6, "S2R+ cell number, rep 1": 1.12e6, "S2R+ cell number, rep 2": 1.23e6, "activity call": "inactive"}
{"gene": "Den1 (Deneddylase 1)", "DRSC id": "DRSC07195", "Kc cell number, rep 1": 1.46e6, "Kc cell number, rep 2": 1.40e6, "S2R+ cell number, rep 1": 1.16e6, "S2R+ cell number, rep 2": 1.32e6, "activity call": "inactive"}
{"gene": "CG30054", "DRSC id": "DRSC05354", "Kc cell number, rep 1": 1.59e6, "Kc cell number, rep 2": 1.62e6, "S2R+ cell number, rep 1": 1.05e6, "S2R+ cell number, rep 2": 1.25e6, "activity call": "inactive"}
{"gene": "CG30127 (retired record)", "DRSC id": "DRSC05785", "Kc cell number, rep 1": 5.11e5, "S2R+ cell number, rep 1": 8.21e5, "activity call": "inactive"}
{"gene": "CG30127 (retired record)", "DRSC id": "DRSC05786", "Kc cell number, rep 1": 6.13e5, "S2R+ cell number, rep 1": 8.59e5, "activity call": "inactive"}
{"gene": "CG14246", "DRSC id": "DRSC14741", "Kc cell number, rep 1": 1.37e6, "Kc cell number, rep 2": 1.33e6, "S2R+ cell number, rep 1": 9.66e5, "S2R+ cell number, rep 2": 1.12e6, "activity call": "inactive"}
{"gene": "CG5439", "DRSC id": "DRSC02861", "Kc cell number, rep 1": 1.38e6, "Kc cell number, rep 2": 1.45e6, "S2R+ cell number, rep 1": 1.25e6, "S2R+ cell number, rep 2": 1.26e6, "activity call": "inactive"}
{"gene": "Cht5 (Chitinase 5)", "DRSC id": "DRSC16470", "Kc cell number, rep 1": 1.63e6, "Kc cell number, rep 2": 1.54e6, "S2R+ cell number, rep 1": 1.33e6, "S2R+ cell number, rep 2": 1.31e6, "activity call": "inactive"}
{"gene": "CG10137", "DRSC id": "DRSC02014", "Kc cell number, rep 1": 1.17e6, "Kc cell number, rep 2": 1.32e6, "S2R+ cell number, rep 1": 1.16e6, "S2R+ cell number, rep 2": 1.20e6, "activity call": "inactive"}
{"gene": "CG10137", "DRSC id": "DRSC02015", "Kc cell number, rep 1": 1.54e6, "Kc cell number, rep 2": 1.67e6, "S2R+ cell number, rep 1": 1.31e6, "S2R+ cell number, rep 2": 4.28e5, "activity call": "inactive"}
{"gene": "TfIIA-S (Transcription-factor-IIA-S)", "DRSC id": "DRSC16883", "Kc cell number, rep 1": 1.52e6, "Kc cell number, rep 2": 1.51e6, "S2R+ cell number, rep 1": 9.76e5, "S2R+ cell number, rep 2": 1.09e6, "activity call": "inactive"}

Look-ups from the entries so far.
Result for CG10137 [DRSC02015] under “S2R+ cell number, rep 1”: 1.31e6
Den1 (Deneddylase 1) [DRSC07195], Kc cell number, rep 1 → 1.46e6
